Assay results reported in the supplement of paper PMC10338343.
± gives the standard deviation. The entries are a selection whose mix differs from that of the whole data set. The uncertainty is large for many entries.

What follows are sequences tested on EfPiwi piRISC loaded with piRNA #1 (26 nt) (assay: pre-steady-state target cleavage rate (min^-1); guide: piRNA #1 5'p-UGAGGUAGUAGGUUGUAUAGUAUCCA; MIWI and MILI are mouse PIWI proteins and EfPiwi is from a freshwater sponge; tags in brackets are library labels; higher = faster piRNA-guided slicing of the target). Settings: auxiliary factor: 500 nM Ephydatia muelleri Gtsf1.
Protocol: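 Cleave-'n-Seq: a library of target RNAs (target site in constant flanks) at […] was incubated with 1 nM active freshwater sponge Ephydatia fluviatilis Piwi piRISC (synthetic 5'-monophosphorylated piRNA guide) with or without 500 nM EmGtsf1 at 33 °C for 1 min to 16 h. Uncleaved targets were sequenced and the pooled three trials fitted to a burst-and-steady-state model to give the pre-steady-state cleavage rate (min^-1). Sequence is the target site only. Fits with R² ≤ 0 are excluded.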

| Sequence | pre-steady-state target cleavage rate |
| --- | --- |
| GGAGACCUAACUUUACAACCUACAACCUCA | 0.000841 ± 0.0097 |
| GGAGACCAUACUAUUCUACCUACUACCUCA | 0.000958 ± 0.0064 |
| GGAGACCUAUGAUAUGUACCUGCUACCUCA | 0.000296 ± 0.014 |
| GGAGACCUAUGUUUACAACCUACAACCUCA | 0.000462 ± 0.0047 |
| GGAGACCUAUGUAUACAACCUUCUACCUCA | 0.00129 ± 0.005 |
| GGAGACGAUACUAUCACAACCUACUACCUCA | 0.0153 ± 0.0062 |
| GGAGAGGAUACUAUAGAACGUACUACCUCA | 0.00158 ± 0.002 |
| GGAGACCUAUGAAUACAAGGAACUACCUCA | 0.000182 ± 0.013 |
| GGAGAGAAUACUAUACAACCUACUACCUCA | 0.0106 ± 0.0053 |
| GGAGACCUUACUAUACAACCUAGUACCACA | 0.00255 ± 0.0023 |
| GGAGAGGAUAGUAUACAAGCUACUACCUCA | 0.00104 ± 0.0049 |
| GGAGACGAAACAAUACAACCUACUACCUCA | 0.00789 ± 0.0038 |
| GGAGACCUUACAAUACAACCUAGUACCUCA | 0.00138 ± 0.0035 |
| GGAGAGGAAACUAUAGAACCUACUACCUCA | 0.00143 ± 0.0034 |
| GGAGUGGAAACUAUACAACCUACUUCCUCA | 0.00164 ± 0.0032 |
| GGAGACCUAUGAUAUGUUGCUUCUACCACA | 0.000227 ± 0.0087 |
| GGAGACCUAUCUAUACAACGUACUACCUGA | 0.00325 ± 0.0035 |
| GGAGACCUAUCUAUACAACCAACUACCACA | 0.00141 ± 0.0059 |
| GGAGACCUAUGUUUAGAACCUACUACCUCA | 0.00077 ± 0.0086 |
| GGAGAGGAUACUAUACAUCCUAGUACCUCA | 0.00177 ± 0.0022 |

| Sequence | pre-steady-state target cleavage rate |
| --- | --- |
| GGAGACCAUACUAUACAACCUACACCUCA | 0.00776 ± 0.0044 |
| GGAGACCUAACUAUACAACCAACAACCUCA | 0.000856 ± 0.01 |
| GGAGACCUAUGAUUAGUUCCUACUACCUCA | 0.000425 ± 0.0062 |
| GGAGUGGAUACUAUACAACCUACUACCCCA | 0.00727 ± 0.0025 |
| GGAGACCUAUGAUAUGUACGCUACUACCUCA | 0.00134 ± 0.0053 |
| GGAGACCUAUGAAUACAACGUACAACCUCA | 0.000927 ± 0.011 |
| GGAGACCUAACUAUACAACCUUCUACCACA | 0.0033 ± 0.0044 |
| GGAGACCAUACUAUACAACGUUCUACCUCA | 0.00334 ± 0.0035 |
| GGAGACCUUACUAUACAACGUACUUCCUCA | 0.00315 ± 0.0021 |
| GGAGACCUAUGAUAUGUUCCUACUCCCUCA | < 0.0001 |
| GGAGACCUUACUAAACAACCAACUACCUCA | 0.000342 ± 0.017 |
| GGAGACCUAUGUAUACUACCUACUACGUCA | 0.00126 ± 0.0035 |
| GGAGACGAUACUAUACAACCUUCUUCCUCA | 0.0037 ± 0.0019 |
| GGAGACGAUACUAUACAACCAACUUCCUCA | 0.00381 ± 0.0022 |
| GGAGACCUAUGAAUACAUCGUACUACCUCA | 0.000258 ± 0.014 |
| GGAGACGAUACUAACAACCUACUACCUCA | 0.00704 ± 0.0045 |
| GGAGACCUAUGAUUACAACCUAGAACCUCA | 0.000515 ± 0.01 |
| GGAGACCUAUGAUUACAUCCUACUACGUCA | 0.00157 ± 0.0043 |
| GGAGACCUAUGAAUAAACCUACUACCUCA | 0.000523 ± 0.0094 |
| GGAGUGGAUCACUAUACAACCUACUACCUCA | 0.00417 ± 0.0043 |

Nothing new here: entries from further up.

| Sequence | pre-steady-state target cleavage rate |
| --- | --- |
| GGAGACCUAUGUUUACAACCUACAACCUCA | 0.000462 ± 0.0047 |
| GGAGACCUAUGUAUACAACCUUCUACCUCA | 0.00129 ± 0.005 |
| GGAGACGAUACUAUCACAACCUACUACCUCA | 0.0153 ± 0.0062 |
| GGAGAGGAUACUAUAGAACGUACUACCUCA | 0.00158 ± 0.002 |
| GGAGACCUAUGAAUACAAGGAACUACCUCA | 0.000182 ± 0.013 |
| GGAGAGAAUACUAUACAACCUACUACCUCA | 0.0106 ± 0.0053 |
| GGAGACCUUACUAUACAACCUAGUACCACA | 0.00255 ± 0.0023 |
| GGAGAGGAUAGUAUACAAGCUACUACCUCA | 0.00104 ± 0.0049 |
| GGAGACGAAACAAUACAACCUACUACCUCA | 0.00789 ± 0.0038 |
| GGAGACCUUACAAUACAACCUAGUACCUCA | 0.00138 ± 0.0035 |
| GGAGAGGAAACUAUAGAACCUACUACCUCA | 0.00143 ± 0.0034 |
